The text below walks through data of PMC10074118.

No constants are given. Whether binding was seen depends on the method and setting. Binding seen in cells or lysates may run through a third protein. Some results given as binding are weak or reduced against the parent protein; the word gives no strength. Where a sequence is shown, tags or fusion partners need not be part of it.

In this assay the target is T1, Arl6/BBS3 (UniProt Q9H0F7).
T1 sequence: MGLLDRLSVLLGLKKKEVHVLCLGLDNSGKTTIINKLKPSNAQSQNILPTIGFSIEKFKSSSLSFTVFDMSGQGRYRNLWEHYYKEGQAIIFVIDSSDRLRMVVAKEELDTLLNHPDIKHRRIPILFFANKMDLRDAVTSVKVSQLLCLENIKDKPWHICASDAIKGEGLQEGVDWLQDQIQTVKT
In words: co-IP; lysates of HEK293 transiently expressing BBS1 or BBS1 K143R and BBS3; precipitating antibody not told.

B1: BBS1‐myc (wild type) (protein, UniProt Q8NFJ9 1-593)
chain: MAAASSSDSDACGAESNEANSKWLDAHYDPMANIHTFSACLALADLHGDGEYKLVVGDLGPGGQQPRLKVLKGPLVMTESPLPALPAAAATFLMEQHEPRTPALALASGPCVYVYKNLRPYFKFSLPQLPPNPLEQDLWNQAKEDRIDPLTLKEMLESIRETAEEPLSIQSLRFLQLELSEMEAFVNQHKSNSIKRQTVITTMTTLKKNLADEDAVSCLVLGTENKELLVLDPEAFTILAKMSLPSVPVFLEVSGQFDVEFRLAAACRNGNIYILRRDSKHPKYCIELSAQPVGLIRVHKVLVVGSTQDSLHGFTHKGKKLWTVQMPAAILTMNLLEQHSRGLQAVMAGLANGEVRIYRDKALLNVIHTPDAVTSLCFGRYGREDNTLIMTTRGGGLIIKILKRTAVFVEGGSEVGPPPAQAMKLNVPRKTRLYVDQTLREREAGTAMHRAFQTDLYLLRLRAARAYLQALESSLSPLSTTAREPLKLHAVVQGLGPTFKLTLHLQNTSTTRPVLGLLVCFLYNEALYSLPRAFFKVPLLVPGLNYPLETFVESLSNKGISDIIKVLVLREGQSAPLLSAHVNMPGSEGLAAA
As to B1, the binding entry is “binds”.
